# Experimental data as given in the supplement of paper PMC4604168 (melanoma cell lines).
# Some of the results follow. Repeats are few or missing, and single values can be far off.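 Cells were imaged in 1,536-well plates, and nuclei stained with an antibody against cleaved PARP were counted against all DNA-stained nuclei to give the apoptosis fraction. Screening doses were chosen to leave most cells alive, and resting and induced cleaved-PARP levels differ strongly between cell lines.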
# What was measured:
# Assay in all cases: cleaved PARP positive nuclei fraction relative to DMSO control; melanoma cells; higher = more apoptosis
# Details in all cases: library dose: low library concentration; 72 h
# 501Mel = tested on: 501Mel
# A101D = tested on: A101D
# A2058 = tested on: A2058
# A375 = tested on: A375
# C32 = tested on: C32
# CBRC008 = tested on: CBRC008 (line from a melanoma biopsy)
# CBRC013 = tested on: CBRC013 (line from a melanoma biopsy)
# CBRC014 = tested on: CBRC014 (line from a melanoma biopsy)
# CBRC016 = tested on: CBRC016 (line from a melanoma biopsy)
# CBRC017 = tested on: CBRC017 (line from a melanoma biopsy)
# COLO792 = tested on: COLO792
# COLO800 = tested on: COLO800
# COLO829 = tested on: COLO829
# G361 = tested on: G361
# IPC-298 = tested on: IPC-298
# IST-MEL1 = tested on: IST-MEL1
# LB2518-MEL = tested on: LB2518-MEL
# LOXIMVI = tested on: LOXIMVI
# MEL-HO = tested on: MEL-HO
SMILES,cleaved PARP positive nuclei fraction (501Mel),cleaved PARP positive nuclei fraction (A101D),cleaved PARP positive nuclei fraction (A2058),cleaved PARP positive nuclei fraction (A375),cleaved PARP positive nuclei fraction (C32),cleaved PARP positive nuclei fraction (CBRC008),cleaved PARP positive nuclei fraction (CBRC013),cleaved PARP positive nuclei fraction (CBRC014),cleaved PARP positive nuclei fraction (CBRC016),cleaved PARP positive nuclei fraction (CBRC017),cleaved PARP positive nuclei fraction (COLO792),cleaved PARP positive nuclei fraction (COLO800),cleaved PARP positive nuclei fraction (COLO829),cleaved PARP positive nuclei fraction (G361),cleaved PARP positive nuclei fraction (IPC-298),cleaved PARP positive nuclei fraction (IST-MEL1),cleaved PARP positive nuclei fraction (LB2518-MEL),cleaved PARP positive nuclei fraction (LOXIMVI),cleaved PARP positive nuclei fraction (MEL-HO)
"C=C(c1ccc(C(=O)O)cc1)c1cc2c(cc1C)C(C)(C)CCC2(C)C [Bexarotene] + C=CCn1c(=O)c2cnc(Nc3ccc(N4CCN(C)CC4)cc3)nc2n1-c1cccc(C(C)(C)O)n1 [MK1775] (first compound 2 µM, partner dose 0.02 µM)",154%,44.7%,96.6%,365%,64.6%,271%,74.6%,146%,883%,481%,61.9%,109%,107%,118%,48.9%,68%,123%,38.2%,263%
"CN1CCN(c2ccc3nc(-c4c(N)c5c(F)cccc5[nH]c4=O)[nH]c3c2)CC1 [Dovitinib] + O=C(CCCCCCC(=O)Nc1ccccc1)NO [vorinostat] (first compound 0.1 µM, partner dose 0.08 µM)",94.9%,42.2%,168%,22.1%,102%,87.9%,158%,76.7%,147%,112%,79.4%,82.8%,218%,165%,87%,123%,97.1%,43.9%,69.2%
"Cc1cc(Nc2cc(N3CCN(C)CC3)nc(/C=C/c3ccccc3)n2)n[nH]1 + O=C(CCCCCCC(=O)Nc1ccccc1)NO [vorinostat] (first compound 0.04 µM, partner dose 0.08 µM)",90.3%,231%,123%,130%,64.6%,46.1%,81.8%,74.4%,78%,108%,127%,108%,68.9%,158%,98.5%,132%,88.3%,105%,73%
"CC(C)C[C@H](NC(=O)[C@H](Cc1ccccc1)NC(=O)c1cnccn1)B(O)O [Bortezomib] + CN(NC(=O)CC(=O)NN(C)C(=S)c1ccccc1)C(=S)c1ccccc1 [STA4783] (first compound 0.001 µM, partner dose 0.006 µM)",286%,978%,105%,2600%,187%,4450%,111%,669%,358%,336%,47.3%,293%,279%,2820%,122%,157%,1640%,214%,148%
"O=C(O)[C@@H]1[O][Sb](=[O])([O][Sb]2(=[O])[O][C@H]([C@H](O)CO)[C@H](O)[C@H](C(=O)O)[O]2)[O][C@H]([C@H](O)CO)[C@@H]1O (some centres undefined) [stibogluconate] + O=C(Nc1cccc(Cl)c1)Nc1ncc(CCNc2ncnc3ccsc23)s1 [SNS314] (first compound 2 µM, partner dose 0.0008 µM)",164%,78.6%,83.8%,21.4%,281%,155%,165%,29.3%,96%,99.2%,75.1%,121%,95.4%,146%,44.4%,96.6%,45.9%,24.4%,136%
"CCCS(=O)(=O)Nc1ccc(F)c(C(=O)c2c[nH]c3ncc(Cl)cc23)c1F + CC(C)(C)c1cnc(CSc2cnc(NC(=O)C3CCNCC3)s2)o1 [SNS-032] (first compound 0.08 µM, partner dose 0.01 µM)",169%,90.6%,59.1%,477%,85.5%,57.5%,93.1%,102%,68.6%,93.2%,68.5%,73.4%,168%,68.4%,74.6%,331%,77.5%,184%,39.9%
"Cc1cc(Nc2cc(N3CCN(C)CC3)nc(/C=C/c3ccccc3)n2)n[nH]1 + OCCn1cc(-c2cnc3nnn(Cc4ccc5ncccc5c4)c3n2)cn1 [PF04217903] (first compound 0.04 µM, partner dose 1 µM)",180%,104%,96.6%,26.5%,47.1%,257%,107%,217%,35.3%,89.8%,51.9%,37.7%,104%,133%,89.5%,82.6%,48.1%,19.9%,186%
"Cn1c(=O)n(-c2ccc(C(C)(C)C#N)cc2)c2c3cc(-c4cnc5ccccc5c4)ccc3ncc21 + C[C@@H]1CCN(C(=O)CC#N)C[C@@H]1N(C)c1ncnc2[nH]ccc12 [CP690550] (first compound 0.004 µM, partner dose 1 µM)",96.2%,36.3%,21.4%,64.2%,47.8%,56.2%,75.4%,80%,90%,80.3%,80.6%,42.3%,111%,103%,47.5%,49.2%,82.8%,95.3%,137%
"O=C(O)[C@@H]1[O][Sb](=[O])([O][Sb]2(=[O])[O][C@H]([C@H](O)CO)[C@H](O)[C@H](C(=O)O)[O]2)[O][C@H]([C@H](O)CO)[C@@H]1O (some centres undefined) [stibogluconate] + CC1(C)NC(=O)N(c2ccc([N+](=O)[O-])c(C(F)(F)F)c2)C1=O [nilutamide] (first compound 2 µM, partner dose 1 µM)",86.5%,72%,91.2%,66.9%,92.1%,48.7%,107%,63.8%,112%,81.1%,174%,23.5%,87.1%,134%,46.7%,139%,177%,130%,85.7%
"Cc1cc(Nc2cc(N3CCN(C)CC3)nc(/C=C/c3ccccc3)n2)n[nH]1 + C=CCn1c(=O)c2cnc(Nc3ccc(N4CCN(C)CC4)cc3)nc2n1-c1cccc(C(C)(C)O)n1 [MK1775] (first compound 0.04 µM, partner dose 0.02 µM)",74.7%,97.8%,165%,189%,114%,65.9%,110%,114%,110%,68.4%,155%,162%,110%,98.1%,60.9%,32.1%,61.9%,70.4%,153%
"C[C@@H](Oc1cc(-c2cnn(C3CCNCC3)c2)cnc1N)c1c(Cl)ccc(F)c1Cl [Crizotinib] + Cc1cc(N2CCOCC2)cc2[nH]c(-c3c(NC[C@@H](O)c4cccc(Cl)c4)cc[nH]c3=O)nc12 [BMS536924] (first compound 0.2 µM, partner dose 0.2 µM)",203%,41.7%,112%,166%,138%,290%,165%,86.5%,74%,101%,24.9%,69.9%,153%,186%,46.8%,67.3%,112%,83.8%,155%
"Cc1cc(Nc2cc(N3CCN(C)CC3)nc(/C=C/c3ccccc3)n2)n[nH]1 + COc1cc2c(Oc3ccc4[nH]c(C)cc4c3F)ncnc2cc1OCCCN1CCCC1 [cediranib] (first compound 0.04 µM, partner dose 0.4 µM)",103%,85.7%,68.7%,205%,256%,47.6%,93%,99.2%,53.1%,79.9%,97.4%,57.8%,52%,145%,61.3%,105%,111%,55.2%,66.7%
"C[C@@H](Oc1cc(-c2cnn(C3CCNCC3)c2)cnc1N)c1c(Cl)ccc(F)c1Cl [Crizotinib] + CN(C)S(=O)(=O)c1ccc2c(c1)/C(=C/c1cc3c([nH]1)CCCC3)C(=O)N2 [SU6656] (first compound 0.2 µM, partner dose 0.4 µM)",79.3%,66.7%,37.8%,93.1%,106%,65%,131%,102%,57.3%,100%,79.1%,51.2%,155%,149%,82.7%,67.9%,110%,44.6%,35.2%
"C[C@@H](Oc1cc(-c2cnn(C3CCNCC3)c2)cnc1N)c1c(Cl)ccc(F)c1Cl [Crizotinib] + OCCn1cc(-c2cnc3nnn(Cc4ccc5ncccc5c4)c3n2)cn1 [PF04217903] (first compound 0.2 µM, partner dose 1 µM)",154%,122%,215%,190%,169%,106%,97.7%,86.8%,161%,96.1%,137%,51.4%,135%,24.8%,96.4%,396%,52.1%,96.7%,93.9%
"Nc1ncn([C@H]2C[C@H](O)[C@@H](CO)O2)c(=O)n1 [decitabine] + O=C(O)c1ccc(-c2c[nH]c3ncc(-c4ccccc4)cc23)cc1C1CCCC1 [GSK650394] (first compound 0.1 µM, partner dose 0.16 µM)",190%,256%,112%,170%,164%,226%,76.5%,90.6%,185%,74.1%,36.8%,76%,66.6%,172%,138%,109%,101%,181%,173%
"Nc1ccn([C@@H]2O[C@H](CO)[C@@H](O)C2(F)F)c(=O)n1 [gemcitabine] + COc1cc2c(Oc3ccc4[nH]c(C)cc4c3F)ncnc2cc1OCCCN1CCCC1 [cediranib] (first compound 0.0004 µM, partner dose 0.4 µM)",227%,70.9%,47.4%,166%,32.2%,73.9%,113%,111%,383%,169%,18.6%,92.3%,144%,89.8%,141%,237%,54.8%,737%,88.1%

# 2 records drawn at random from the list so far:
SMILES,cleaved PARP positive nuclei fraction (501Mel),cleaved PARP positive nuclei fraction (A101D),cleaved PARP positive nuclei fraction (A2058),cleaved PARP positive nuclei fraction (A375),cleaved PARP positive nuclei fraction (C32),cleaved PARP positive nuclei fraction (CBRC008),cleaved PARP positive nuclei fraction (CBRC013),cleaved PARP positive nuclei fraction (CBRC014),cleaved PARP positive nuclei fraction (CBRC016),cleaved PARP positive nuclei fraction (CBRC017),cleaved PARP positive nuclei fraction (COLO792),cleaved PARP positive nuclei fraction (COLO800),cleaved PARP positive nuclei fraction (COLO829),cleaved PARP positive nuclei fraction (G361),cleaved PARP positive nuclei fraction (IPC-298),cleaved PARP positive nuclei fraction (IST-MEL1),cleaved PARP positive nuclei fraction (LB2518-MEL),cleaved PARP positive nuclei fraction (LOXIMVI),cleaved PARP positive nuclei fraction (MEL-HO)
"Cc1cc(Nc2cc(N3CCN(C)CC3)nc(/C=C/c3ccccc3)n2)n[nH]1 + OCCn1cc(-c2cnc3nnn(Cc4ccc5ncccc5c4)c3n2)cn1 [PF04217903] (first compound 0.04 µM, partner dose 1 µM)",180%,104%,96.6%,26.5%,47.1%,257%,107%,217%,35.3%,89.8%,51.9%,37.7%,104%,133%,89.5%,82.6%,48.1%,19.9%,186%
"C[C@@H](Oc1cc(-c2cnn(C3CCNCC3)c2)cnc1N)c1c(Cl)ccc(F)c1Cl [Crizotinib] + CN(C)S(=O)(=O)c1ccc2c(c1)/C(=C/c1cc3c([nH]1)CCCC3)C(=O)N2 [SU6656] (first compound 0.2 µM, partner dose 0.4 µM)",79.3%,66.7%,37.8%,93.1%,106%,65%,131%,102%,57.3%,100%,79.1%,51.2%,155%,149%,82.7%,67.9%,110%,44.6%,35.2%
